PubChem BioAssay AID180 (DTP/NCI, 2004)
The list does not hold the whole screen: it is rich in T/C values a quarter to a half above the control, in often repeated tests (any T/C) and in doses without a T/C. Further doses and runs are listed elsewhere. T/C is the treated group as % of the vehicle group. Schedules are NCI's codes, read here as Q, the interval in days (D) or hours (H), X, the number of doses. Some T/C values carry the count of animals alive at the toxicity check (mostly the fifth day); where none is given, no animal had died by that day. Some doses were run more than once; the values are given in rising order. Some entries give survivors of the animals treated and no T/C: the source holds a T/C of zero for them, seemingly a mark for toxic or unscored doses. Survivors were counted at the toxicity check, usually on the fifth day, unless a day is given; later deaths do not show.

System: BDF1 mice, Adenocarcinoma 755 s.c., tumor weight T/C
Experiment: NCI In Vivo Anticancer Drug Screen. Data for tumor model Adenocarcinoma 755 (subcutaneous) in B6D2F1 (BDF1) mice
Details: T/C endpoint: mean tumor weight, higher T/C = larger tumour; for T/C: evaluated on day 12
Experimental: The antitumor activity of compounds was measured in mice bearing transplantable tumors. Survival or tumor size were measured and the results are expressed as the measurement made in the treated group (T) divided by the measurement made in the vehicle treated control group (C). The tumor model used in this assay is Adenocarcinoma 755 (subcutaneous) in B6D2F1 (BDF1) mice

[1] = dose: 15.0 mg/kg/injection, schedule: Q01DX011 (ip), vehicle: methylcellulose (MC)
[2] = dose: 200.0 mg/kg/injection, schedule: Q01DX011 (ip), vehicle: carboxymethylcellulose (CMC)
[3] = dose: 400.0 mg/kg/injection, schedule: Q01DX011 (ip), vehicle: carboxymethylcellulose (CMC)
[4] = dose: 25.0 mg/kg/injection, schedule: Q01DX011 (sc), vehicle: steroid suspending solution
[5] = dose: 60.0 mg/kg/injection, schedule: Q01DX011 (ip), vehicle: methylcellulose (MC)
[6] = dose: 250.0 mg/kg/injection, schedule: Q01DX011 (ip), vehicle: carboxymethylcellulose (CMC)
[7] = dose: 80.0 mg/kg/injection, schedule: Q01DX011 (sc), vehicle: steroid suspending solution

Nc1c(Br)cc2c(c1Br)Cc1cc(Br)ccc1-2
survivor count (dose: 60.0 mg/kg/injection, schedule: Q01DX006 (iv), vehicle: saline): 0 of 10 | survivor count (dose: 120.0 mg/kg/injection, schedule: Q01DX006 (iv), vehicle: saline): 0 of 10 | survivor count (dose: 240.0 mg/kg/injection, schedule: Q01DX006 (iv), vehicle: saline): 0 of 10 | survivor count (dose: 480.0 mg/kg/injection, schedule: Q01DX006 (iv), vehicle: saline): 0 of 10

CCOC(=O)C(Cc1ccc(N(CCCl)CCCl)cc1)NP1(=O)NCCCO1 (centres undefined)
survivor count (dose: 36.0 mg/kg/injection, schedule: Q01DX011 (ip), vehicle: saline): 2 of 10

Cc1ccccc1N=Nc1ccc(N=Nc2ccc(O)cc2)c(C)c1
survivor count [1]: 3 of 10

CS(=O)(=O)OCCCCCCCCCOS(C)(=O)=O
survivor count (dose: 110.0 mg/kg/injection, schedule: Q01DX011 (ip), vehicle: carboxymethylcellulose (CMC)): 0 of 10

CCc1c(Cl)nc(N)nc1Nc1ccc(Br)cc1
T/C [1]: 131 % of control [8 of 10 alive]

COC(=O)c1nc(-c2ccc3c(n2)C(=O)C(N)=C(OC)C3=O)c(N)c(-c2ccc(OC)c(OC)c2O)c1C
survivor count (dose: 2.5 mg/kg/injection, schedule: Q01DX011 (ip), vehicle: other): 6 of 10

CC1(c2ccccc2)O[C@@H]2C[C@H]3[C@@H]4CCC5=CC(=O)C=C[C@]5(C)[C@@]4(F)[C@@H](O)C[C@]3(C)[C@]2(C(=O)CO)O1 (some centres undefined)
survivor count (dose: 22.0 mg/kg/injection, schedule: Q01DX011 (sc), vehicle: steroid suspending solution): 5 of 10 and 10 of 16

Cc1ccccc1CNc1ncnc2[nH]ncc12
survivor count (dose: 150.0 mg/kg/injection, schedule: Q01DX011 (ip), vehicle: saline): 3 of 10

CCN(CC)CCCC(C)Nc1c2ccc(Cl)cc2nc2ccc(OC)cc12 (centres undefined)
survivor count [2]: 0 of 10 | survivor count [3]: 0 of 10

C[C@]12CC[C@H](O)CC1=CC[C@@H]1[C@@H]2[C@@H](O)C[C@@]2(C)[C@H]1CC[C@]2(C)O
T/C [4]: 137 % of control

O=C(Nc1ccc(C2=NCCN2)cc1)c1cc(Cl)c(C(=O)Nc2ccc(C3=NCCN3)cc2)cc1Cl
survivor count [5]: 1 of 10

O=C(CCBr)N1CN(C(=O)CCBr)CN(C(=O)CCBr)C1
T/C (dose: 28.0 mg/kg/injection, schedule: Q01DX011 (ip), vehicle: methylcellulose (MC)): 126 % of control

CCC(=O)c1cc2c(cc1CC)C(C)(C)CCC2(C)C
survivor count [2]: 5 of 10 | survivor count [3]: 0 of 10 and 5 of 10

CC1CC(C)C(=O)C(C(=O)CC2CC(=O)NC(=O)C2)C1 (centres undefined)
survivor count [6]: 4 of 10

O=c1[nH]cnc2c1ncn2C1CCCCC1
T/C (dose: 93.0 mg/kg/injection, schedule: Q01DX011 (ip), vehicle: carboxymethylcellulose (CMC)): 131 % of control | T/C (dose: 185.0 mg/kg/injection, schedule: Q01DX011 (ip), vehicle: carboxymethylcellulose (CMC)): 71 [7 of 10 alive], 74, 85, 86 % of control [9 of 10 alive]

Nc1nc(N)c2[nH]cnc2n1
survivor count (dose: 139.9 mg/kg/injection, schedule: Q01DX011 (ip), vehicle: carboxymethylcellulose (CMC)): 3 of 10

C/C(=N\NC(=O)c1ccncc1)c1ccc(F)cc1
survivor count (dose: 30.0 mg/kg/injection, schedule: Q01DX011 (ip), vehicle: methylcellulose (MC)): 2 of 10 | survivor count [5]: 4 of 10

Nc1cnc(=O)[nH]c1N
T/C (dose: 240.0 mg/kg/injection, schedule: Q01DX011 (ip), vehicle: carboxymethylcellulose (CMC)): 126 % of control

Cn1c(=O)c2[nH]c(N/N=C/c3ccccc3)nc2n(C)c1=O
survivor count (dose: 240.0 mg/kg/injection, schedule: Q01DX011 (ip), vehicle: methylcellulose (MC)): 6 of 10

Nc1nc2c(nnn2C2OC(CO)C(O)C2O)c(=O)[nH]1 (centres undefined)
survivor count (dose: 25.0 mg/kg/injection, schedule: Q01DX011 (ip), vehicle: methylcellulose (MC)): 5 of 10

Nc1nc(SCc2ccccc2)c2ncn(C3OC(CO)C(O)C3O)c2n1 (centres undefined)
survivor count (dose: 150.0 mg/kg/injection, schedule: Q01DX011 (ip), vehicle: methylcellulose (MC)): 5 of 10

N#[N+]c1cnc([O-])[nH]c1=O
survivor count (dose: 10.0 mg/kg/injection, schedule: Q01DX011 (ip), vehicle: carboxymethylcellulose (CMC)): 1 of 10 | survivor count (dose: 11.8 mg/kg/injection, schedule: Q01DX011 (ip), vehicle: carboxymethylcellulose (CMC)): 1 of 10 | survivor count (dose: 1463.0 micrograms/kg/injection, schedule: Q01DX011 (ip), vehicle: carboxymethylcellulose (CMC)): 6 of 10 | T/C (dose: 5850.0 micrograms/kg/injection, schedule: Q01DX011 (ip), vehicle: carboxymethylcellulose (CMC)): 128 % of control [9 of 10 alive]

CCC(c1ccc(O)cc1)C(CC)c1ccc(OC)cc1 (centres undefined)
survivor count (dose: 40.0 mg/kg/injection, schedule: Q01DX011 (sc), vehicle: steroid suspending solution): 6 of 10 | survivor count [7]: 3 of 10 | survivor count (dose: 160.0 mg/kg/injection, schedule: Q01DX011 (sc), vehicle: steroid suspending solution): 3 of 10 | survivor count (dose: 320.0 mg/kg/injection, schedule: Q01DX011 (sc), vehicle: steroid suspending solution): 1 of 10

CCC(=O)N(CC)CC
survivor count (dose: 500.0 mg/kg/injection, schedule: Q01DX011 (ip), vehicle: other): 1 of 10

C[C@]12CCC(=O)C=C1CC[C@@H]1[C@@H]2[C@@H](O)C[C@]2(C)C(=O)CC[C@@H]12
T/C [4]: 136 % of control

Cn1cnc2c(ncn2C2OC(CO)C(O)C2O)c1=N (centres undefined)
survivor count (dose: 600.0 mg/kg/injection, schedule: Q01DX011 (ip), vehicle: saline): 6 of 10

C[C@H]1C[C@H]2[C@@H]3CC[C@](O)(C(=O)CF)[C@@]3(C)C[C@H](O)[C@]2(F)[C@@]2(C)C=CC(=O)C=C12
survivor count [7]: 4 of 10

CC(=O)Nc1c(Cl)cc2c(c1Cl)Cc1cc([N+](=O)[O-])ccc1-2
survivor count (dose: 50.0 mg/kg/injection, schedule: Q01DX011 (ip), vehicle: other): 2 of 10 | survivor count (dose: 100.0 mg/kg/injection, schedule: Q01DX011 (ip), vehicle: other): 3 of 10 | survivor count (dose: 200.0 mg/kg/injection, schedule: Q01DX011 (ip), vehicle: other): 2 of 10 | survivor count [6]: 7 of 12 | survivor count (dose: 350.0 mg/kg/injection, schedule: Q01DX011 (ip), vehicle: carboxymethylcellulose (CMC)): 6 of 12 | survivor count (dose: 400.0 mg/kg/injection, schedule: Q01DX011 (ip), vehicle: other): 0 of 10 and 4 of 10 | survivor count (dose: 800.0 mg/kg/injection, schedule: Q01DX011 (ip), vehicle: other): 0 of 10

Cc1cnc(SCc2ccc(Cl)cc2Cl)nc1SCc1ccc(Cl)cc1Cl
T/C [1]: 135 % of control

COc1cc2c(c(OC)c1OC)-c1ccc(N)c(=O)cc1[C@@H](NC(C)=O)CC2
survivor count (dose: 8.0 mg/kg/injection, schedule: Q01DX011 (ip), vehicle: saline): 4 of 10

NNC(=O)NC(=O)NN
T/C (dose: 1922.5 micrograms/kg/injection, schedule: Q01DX011 (ip), vehicle: carboxymethylcellulose (CMC)): 135 % of control | survivor count (dose: 9610.0 micrograms/kg/injection, schedule: Q01DX011 (ip), vehicle: carboxymethylcellulose (CMC)): 6 of 10

CCCCSc1ncnc2c1ncn2C1CCCCO1 (centres undefined)
survivor count (dose: 394.0 mg/kg/injection, schedule: Q01DX011 (ip), vehicle: carboxymethylcellulose (CMC)): 0 of 10

Cn1c(=O)c2c(nc(N(CCO)CCO)n2C)n(C)c1=O
T/C (dose: 240.0 mg/kg/injection, schedule: Q01DX011 (ip), vehicle: saline): 129 % of control | survivor count (dose: 960.0 mg/kg/injection, schedule: Q01DX011 (ip), vehicle: saline): 0 of 10
